Measurements as given in paper PMC7819943, “Rice protein-binding microarrays: a tool to detect cis-acting elements near promoter regions in rice”.
This is one part of the list.

Protein sequences, listed by entry. Tags and fused reporters are not part of them.
UniProt Q0JBA9, entry or part of it: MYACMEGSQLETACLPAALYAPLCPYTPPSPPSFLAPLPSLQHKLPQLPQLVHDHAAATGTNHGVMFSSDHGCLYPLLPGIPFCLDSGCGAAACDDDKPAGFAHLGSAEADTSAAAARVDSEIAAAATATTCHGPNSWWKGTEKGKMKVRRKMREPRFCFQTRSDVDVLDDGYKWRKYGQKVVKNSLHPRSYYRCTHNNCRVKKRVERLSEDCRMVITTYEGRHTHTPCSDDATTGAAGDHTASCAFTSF

Molecular target: OsWRKY34 (Oryza sativa, UniProt Q0JBA9 1-250)
Test: protein-binding microarray (RPBM); PBS, 2% BSA, 51.3 ng/ul salmon testes DNA, 50 uM zinc acetate, 200 nM TF, 25 C, 1 h; high values mean tight binding
Settings: protein: recombinant; tags: N-terminal polyhistidine and DsRed monomer fusion (pET32a); label: CyDye5-dUTP incorporated in the synthesized complementary strand; 3' TTTTT single-stranded linker to array surface; dsDNA, one strand shown
In short: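 An Axon 4000B scanner gave the binding signal as per-feature fluorescence intensity in arbitrary units. This followed washing of a custom Agilent array that had been incubated for 1 h at 25 °C with 200 nM protein in PBS, 2% BSA, salmon testes DNA and 50 µM zinc acetate. The proteins were transcription factors fused at the N-terminus to polyhistidine and DsRed, expressed in E. coli BL21-CodonPlus and purified on Ni–NTA.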

Sequence	binding signal
CTCTTTTCTTTTCTCTCACACGCTTTGCCTTTTGCTGCCCCGGAGTCACCTAGTGCAG	9040 fluorescence intensity (a.u.)
TATAGCGAAATGTCAGCCTCTATCCATCCATCTGACATAACGGAGTCACCTAGTGCAG	9690 fluorescence intensity (a.u.)
CCAAACACTCATATAGCCAACTCTCCATCTGATTTAGCTACGGAGTCACCTAGTGCAG	8490 fluorescence intensity (a.u.)
TCTTTGTTTCCCGCGTTTTGTTGGGGATTCGATTTTCGGGCGGAGTCACCTAGTGCAG	11100 fluorescence intensity (a.u.)
GGTTAAACCCAATCAGTGTGCTACCTCACCCCAACCCGGGCGGAGTCACCTAGTGCAG	8380 fluorescence intensity (a.u.)
CTGGTCGGTTCCGCTGACCACCCGTGACTCTTACCACGACCGGAGTCACCTAGTGCAG	8880 fluorescence intensity (a.u.)
TTGCAAATTCCTCTTTTTCTTTCTCGGCTTGTTTGGTAACCGGAGTCACCTAGTGCAG	12200 fluorescence intensity (a.u.)
ACATTTATTTAGCTCTGTTTGTATGTATGAATACATTAGTCGGAGTCACCTAGTGCAG	8090 fluorescence intensity (a.u.)
CTTTGTAGTTGGCTTTTTTCTGATAAATTTATTTCTTCAACGGAGTCACCTAGTGCAG	14300 fluorescence intensity (a.u.)
TCGGTTCCTTTCGCGCCACTCATCAAACCAACCTGTGTCGCGGAGTCACCTAGTGCAG	8060 fluorescence intensity (a.u.)
TGCCGTTTGCTTCACTCCCACTGCTCCTCCTCCACGCGCGCGGAGTCACCTAGTGCAG	9210 fluorescence intensity (a.u.)
GGCGGCAGGGAGGTTAGGGCTTTTTCTACTTCTATACATGCGGAGTCACCTAGTGCAG	14200 fluorescence intensity (a.u.)
TCACATGGATGCATACTTATCTATGTACTGTGGTATTTTCCGGAGTCACCTAGTGCAG	8050 fluorescence intensity (a.u.)
TAATTGAAAAGGTTGCTTATTGAACATTGTTGTTTTCACTCGGAGTCACCTAGTGCAG	8130 fluorescence intensity (a.u.)
CATGGATATCAGCAATAGTAACATTGGCGCCATTCCCAACCGGAGTCACCTAGTGCAG	8920 fluorescence intensity (a.u.)
AGGTTATAAGATGTTTTGACTATGGTTAAAGTCAAACTGCCGGAGTCACCTAGTGCAG	9390 fluorescence intensity (a.u.)
GTCACATTCAGTACTAGGTTGGTTTTTTTATGGGACGGATCGGAGTCACCTAGTGCAG	8960 fluorescence intensity (a.u.)
CGCTCAGTGGTCCCGTCGCATGCTACCATCTCCACTACCGCGGAGTCACCTAGTGCAG	9740 fluorescence intensity (a.u.)
GCCAATGACGATAAGAGCAAAGACGGACGGGAGGGGAGGGCGGAGTCACCTAGTGCAG	10300 fluorescence intensity (a.u.)
TACTACTTATATACTACTCACATTCGAATTTATCTTTTCTCGGAGTCACCTAGTGCAG	9590 fluorescence intensity (a.u.)
TAGTGTCAACCGAATATGACTGGGCTATCTGTTCGTTTCTCGGAGTCACCTAGTGCAG	8090 fluorescence intensity (a.u.)

Fetched one by one from the entries so far (two):
Sequence	binding signal
TATAGCGAAATGTCAGCCTCTATCCATCCATCTGACATAACGGAGTCACCTAGTGCAG	9690 fluorescence intensity (a.u.)
CATGGATATCAGCAATAGTAACATTGGCGCCATTCCCAACCGGAGTCACCTAGTGCAG	8920 fluorescence intensity (a.u.)

Next entries.

Sequence	binding signal
ATCCTTCTTTCCTCTTGCTCCGTGTGCTAAGCATACCGACCGGAGTCACCTAGTGCAG	9530 fluorescence intensity (a.u.)
TCCCACCCGTTTTTATTTTTCTCGGTGGTTAACTTATCTTCGGAGTCACCTAGTGCAG	8170 fluorescence intensity (a.u.)
CTACTACTATCTCATTATGCTACGCTCGTTCCATCCTTTTCGGAGTCACCTAGTGCAG	11700 fluorescence intensity (a.u.)
GATAGTAGTAGTCCACCGTACATAATTATTCTCACACCATCGGAGTCACCTAGTGCAG	8110 fluorescence intensity (a.u.)
CAACATGATGGGATGGGAGTGATAGCTACGTACACTATTGCGGAGTCACCTAGTGCAG	8060 fluorescence intensity (a.u.)
CTGGGAGTTCACATATATGGGCAGGGGCGGGCCCACAATGCGGAGTCACCTAGTGCAG	10400 fluorescence intensity (a.u.)
TTTCCCATTGCTATGCTTTTGCGTAAGGTGATCACCTGATCGGAGTCACCTAGTGCAG	9330 fluorescence intensity (a.u.)
TGTGTTGCTCTCTCTTCACTTGGTTGGCGGCGGCGCTGCGCGGAGTCACCTAGTGCAG	8060 fluorescence intensity (a.u.)
GATTCGTCGTGTCCTTATTTTACTCCTGTAGACATCACCACGGAGTCACCTAGTGCAG	12700 fluorescence intensity (a.u.)
ATGTAGGTCCCATTTAGGTTTGTTTTTATTTTAGTGCCACCGGAGTCACCTAGTGCAG	10400 fluorescence intensity (a.u.)
AACTTAGTTGCTGATGGGGTGTGAGGTACCAAAATTTGTTCGGAGTCACCTAGTGCAG	10100 fluorescence intensity (a.u.)
GGTTTCTCTTATTGACGGTTACCATGGTAATTAGGCTTATCGGAGTCACCTAGTGCAG	8280 fluorescence intensity (a.u.)
GGGAGTATTGTCTTGTGTTCATTTGATTGTATATTGTACTCGGAGTCACCTAGTGCAG	8430 fluorescence intensity (a.u.)
CCTACGCCACTTCCCACTGAAGCCACTTCACCCTCAATTACGGAGTCACCTAGTGCAG	8430 fluorescence intensity (a.u.)
GAAAGCTGGGGAAGGAGTTGGGCTTGCTGGGGTGCGTCAACGGAGTCACCTAGTGCAG	8290 fluorescence intensity (a.u.)
TGCAGCTGCAGGCCAGCAGCCGTCACTCGATATCATATTCCGGAGTCACCTAGTGCAG	10400 fluorescence intensity (a.u.)
TCAACAGATGTATAATTTTCCTCCTCGCTTCATTTTCTTTCGGAGTCACCTAGTGCAG	8080 fluorescence intensity (a.u.)
AAGCCTGCCTCACTCCACCAGCATGATGAAACATCACCTACGGAGTCACCTAGTGCAG	8490 fluorescence intensity (a.u.)
CGCTCACCGCCGCCGCTTCCCCGCCCACCCGCCTTAGCATCGGAGTCACCTAGTGCAG	8420 fluorescence intensity (a.u.)
TGGTGGTGTGTTTTGTCAGTCAAAGTAGGCGCCCATACAACGGAGTCACCTAGTGCAG	10400 fluorescence intensity (a.u.)
GAGTGGGGAGGAGGAGGCGGCGGCGGCGAGGTGTGCGCGGCGGAGTCACCTAGTGCAG	9470 fluorescence intensity (a.u.)
